From the supplement of paper PMC10849652
Some of the results follow.

Chains of the proteins cited; added tags and fusions are not shown. Lines headed by an entry give the natural chain unless they say otherwise; changes in a name come on top.
UniProt Q9Y262, whole entry, looked up: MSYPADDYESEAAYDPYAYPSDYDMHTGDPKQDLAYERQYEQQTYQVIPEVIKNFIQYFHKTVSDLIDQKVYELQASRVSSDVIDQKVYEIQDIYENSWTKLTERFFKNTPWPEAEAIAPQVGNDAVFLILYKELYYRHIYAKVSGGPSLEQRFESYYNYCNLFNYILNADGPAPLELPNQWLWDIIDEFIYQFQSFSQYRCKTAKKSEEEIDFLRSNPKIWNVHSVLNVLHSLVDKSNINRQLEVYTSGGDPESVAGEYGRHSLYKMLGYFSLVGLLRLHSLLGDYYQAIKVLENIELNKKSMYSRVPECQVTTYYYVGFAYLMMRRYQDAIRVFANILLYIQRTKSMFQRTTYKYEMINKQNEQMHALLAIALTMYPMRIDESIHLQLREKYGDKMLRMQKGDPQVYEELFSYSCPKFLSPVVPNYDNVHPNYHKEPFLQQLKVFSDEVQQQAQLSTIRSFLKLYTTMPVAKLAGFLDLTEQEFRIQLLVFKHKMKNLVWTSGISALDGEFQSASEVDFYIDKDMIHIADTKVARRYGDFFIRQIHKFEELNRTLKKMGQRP
UniProt Q9NPA8: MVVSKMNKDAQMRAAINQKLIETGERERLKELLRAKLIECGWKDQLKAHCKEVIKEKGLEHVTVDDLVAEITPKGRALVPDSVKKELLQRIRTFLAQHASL
UniProt P11171, whole entry, looked up: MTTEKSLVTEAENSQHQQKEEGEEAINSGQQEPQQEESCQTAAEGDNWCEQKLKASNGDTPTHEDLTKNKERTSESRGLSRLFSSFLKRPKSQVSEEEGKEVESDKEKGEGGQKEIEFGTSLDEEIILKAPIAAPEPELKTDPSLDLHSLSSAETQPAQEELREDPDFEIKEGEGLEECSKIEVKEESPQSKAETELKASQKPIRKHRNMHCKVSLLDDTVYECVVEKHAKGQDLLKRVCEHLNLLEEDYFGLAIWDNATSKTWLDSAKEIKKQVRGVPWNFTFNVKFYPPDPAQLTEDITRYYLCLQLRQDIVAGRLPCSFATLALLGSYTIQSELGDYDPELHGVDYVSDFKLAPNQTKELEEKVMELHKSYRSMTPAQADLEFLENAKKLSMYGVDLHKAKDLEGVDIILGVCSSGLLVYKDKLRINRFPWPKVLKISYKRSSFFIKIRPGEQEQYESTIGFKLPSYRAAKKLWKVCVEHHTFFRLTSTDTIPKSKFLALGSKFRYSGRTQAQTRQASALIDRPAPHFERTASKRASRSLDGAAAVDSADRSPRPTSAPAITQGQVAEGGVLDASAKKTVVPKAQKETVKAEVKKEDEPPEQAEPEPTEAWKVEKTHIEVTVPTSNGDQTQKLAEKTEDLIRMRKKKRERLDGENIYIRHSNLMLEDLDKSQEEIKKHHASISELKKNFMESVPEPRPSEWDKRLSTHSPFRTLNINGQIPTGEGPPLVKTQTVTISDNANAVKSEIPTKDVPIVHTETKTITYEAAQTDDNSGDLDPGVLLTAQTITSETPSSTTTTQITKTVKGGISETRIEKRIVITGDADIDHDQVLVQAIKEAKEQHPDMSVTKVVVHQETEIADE
UniProt Q9UBQ5, whole entry, looked up: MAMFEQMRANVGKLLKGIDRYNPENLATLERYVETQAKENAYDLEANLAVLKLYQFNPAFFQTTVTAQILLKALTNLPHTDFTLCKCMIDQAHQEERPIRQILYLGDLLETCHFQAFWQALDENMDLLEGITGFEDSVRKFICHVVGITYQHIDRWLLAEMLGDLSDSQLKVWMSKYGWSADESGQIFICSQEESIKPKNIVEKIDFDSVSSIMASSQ
UniProt Q8TE02: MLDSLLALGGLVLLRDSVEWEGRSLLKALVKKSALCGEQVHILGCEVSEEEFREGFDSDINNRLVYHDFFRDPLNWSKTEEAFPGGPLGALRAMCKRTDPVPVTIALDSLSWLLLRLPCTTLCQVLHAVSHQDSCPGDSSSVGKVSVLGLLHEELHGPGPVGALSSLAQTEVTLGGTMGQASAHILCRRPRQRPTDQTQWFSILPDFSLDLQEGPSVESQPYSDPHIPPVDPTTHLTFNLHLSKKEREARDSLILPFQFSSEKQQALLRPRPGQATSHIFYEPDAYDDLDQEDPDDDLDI
UniProt Q9NRA8: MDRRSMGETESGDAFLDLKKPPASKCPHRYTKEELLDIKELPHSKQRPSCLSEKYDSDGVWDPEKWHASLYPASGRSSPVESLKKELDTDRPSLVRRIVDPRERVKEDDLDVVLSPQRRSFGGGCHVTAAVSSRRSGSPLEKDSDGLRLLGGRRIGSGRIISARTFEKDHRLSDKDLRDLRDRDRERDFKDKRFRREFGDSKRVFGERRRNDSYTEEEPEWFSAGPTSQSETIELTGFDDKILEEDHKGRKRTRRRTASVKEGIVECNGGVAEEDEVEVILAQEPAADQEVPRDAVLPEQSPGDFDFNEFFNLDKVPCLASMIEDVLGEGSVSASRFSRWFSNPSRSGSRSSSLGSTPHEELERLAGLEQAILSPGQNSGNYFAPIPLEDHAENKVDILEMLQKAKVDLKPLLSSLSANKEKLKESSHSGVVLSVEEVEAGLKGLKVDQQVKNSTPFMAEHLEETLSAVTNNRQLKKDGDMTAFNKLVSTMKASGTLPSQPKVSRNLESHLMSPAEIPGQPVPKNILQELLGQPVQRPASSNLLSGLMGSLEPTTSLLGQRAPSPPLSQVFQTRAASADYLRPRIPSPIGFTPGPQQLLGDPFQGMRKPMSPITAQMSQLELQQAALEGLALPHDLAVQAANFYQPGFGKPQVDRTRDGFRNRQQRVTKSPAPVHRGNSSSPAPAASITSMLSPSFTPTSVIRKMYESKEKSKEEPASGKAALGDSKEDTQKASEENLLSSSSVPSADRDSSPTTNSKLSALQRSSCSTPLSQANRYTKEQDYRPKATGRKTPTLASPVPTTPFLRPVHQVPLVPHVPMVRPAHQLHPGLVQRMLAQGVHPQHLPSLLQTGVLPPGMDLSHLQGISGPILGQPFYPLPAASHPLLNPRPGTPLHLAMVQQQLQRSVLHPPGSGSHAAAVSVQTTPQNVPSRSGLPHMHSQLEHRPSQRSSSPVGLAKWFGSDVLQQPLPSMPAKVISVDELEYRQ
UniProt P06733, whole entry, looked up: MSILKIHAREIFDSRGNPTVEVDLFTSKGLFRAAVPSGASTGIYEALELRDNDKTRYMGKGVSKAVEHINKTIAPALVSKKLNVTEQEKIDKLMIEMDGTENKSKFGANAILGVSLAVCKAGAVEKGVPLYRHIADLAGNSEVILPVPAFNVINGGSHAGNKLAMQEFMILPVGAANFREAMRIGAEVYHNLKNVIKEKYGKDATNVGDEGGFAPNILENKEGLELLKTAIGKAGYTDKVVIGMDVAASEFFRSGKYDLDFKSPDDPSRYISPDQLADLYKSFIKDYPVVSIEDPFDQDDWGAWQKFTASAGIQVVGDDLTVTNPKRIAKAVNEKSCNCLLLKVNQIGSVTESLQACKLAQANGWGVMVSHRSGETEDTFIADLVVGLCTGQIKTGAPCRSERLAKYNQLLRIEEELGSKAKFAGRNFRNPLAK
UniProt Q9H9B1: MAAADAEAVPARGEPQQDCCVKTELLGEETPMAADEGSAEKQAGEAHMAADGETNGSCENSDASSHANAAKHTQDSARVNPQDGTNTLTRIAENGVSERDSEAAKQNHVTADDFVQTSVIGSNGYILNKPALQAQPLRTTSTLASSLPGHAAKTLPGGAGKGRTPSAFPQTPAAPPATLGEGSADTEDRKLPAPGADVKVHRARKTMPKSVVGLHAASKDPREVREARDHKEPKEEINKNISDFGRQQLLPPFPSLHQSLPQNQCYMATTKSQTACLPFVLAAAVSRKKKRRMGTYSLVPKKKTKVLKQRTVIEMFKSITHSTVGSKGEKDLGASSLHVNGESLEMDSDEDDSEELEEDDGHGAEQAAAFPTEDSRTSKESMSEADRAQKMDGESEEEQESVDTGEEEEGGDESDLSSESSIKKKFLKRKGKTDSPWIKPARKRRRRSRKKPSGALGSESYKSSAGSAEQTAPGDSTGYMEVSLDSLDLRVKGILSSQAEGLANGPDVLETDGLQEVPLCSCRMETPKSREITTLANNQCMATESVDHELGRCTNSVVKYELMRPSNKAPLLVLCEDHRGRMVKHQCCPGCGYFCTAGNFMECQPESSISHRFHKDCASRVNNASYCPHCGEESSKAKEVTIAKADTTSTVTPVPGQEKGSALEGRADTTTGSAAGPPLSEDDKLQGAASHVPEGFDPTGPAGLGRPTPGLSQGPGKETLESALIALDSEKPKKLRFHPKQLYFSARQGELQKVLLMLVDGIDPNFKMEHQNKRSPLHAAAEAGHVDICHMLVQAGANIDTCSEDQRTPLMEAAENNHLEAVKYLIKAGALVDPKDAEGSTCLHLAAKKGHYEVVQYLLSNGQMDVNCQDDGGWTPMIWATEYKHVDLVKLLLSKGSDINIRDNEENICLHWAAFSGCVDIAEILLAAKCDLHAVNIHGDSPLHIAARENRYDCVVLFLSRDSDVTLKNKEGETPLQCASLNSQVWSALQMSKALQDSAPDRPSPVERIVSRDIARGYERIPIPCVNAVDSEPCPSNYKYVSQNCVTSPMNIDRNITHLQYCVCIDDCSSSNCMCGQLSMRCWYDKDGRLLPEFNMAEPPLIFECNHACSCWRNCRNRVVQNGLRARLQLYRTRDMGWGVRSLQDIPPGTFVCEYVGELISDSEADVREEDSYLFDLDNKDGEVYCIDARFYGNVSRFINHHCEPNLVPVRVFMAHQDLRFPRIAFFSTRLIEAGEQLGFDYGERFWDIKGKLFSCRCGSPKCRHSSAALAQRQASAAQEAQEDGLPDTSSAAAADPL
UniProt P98172: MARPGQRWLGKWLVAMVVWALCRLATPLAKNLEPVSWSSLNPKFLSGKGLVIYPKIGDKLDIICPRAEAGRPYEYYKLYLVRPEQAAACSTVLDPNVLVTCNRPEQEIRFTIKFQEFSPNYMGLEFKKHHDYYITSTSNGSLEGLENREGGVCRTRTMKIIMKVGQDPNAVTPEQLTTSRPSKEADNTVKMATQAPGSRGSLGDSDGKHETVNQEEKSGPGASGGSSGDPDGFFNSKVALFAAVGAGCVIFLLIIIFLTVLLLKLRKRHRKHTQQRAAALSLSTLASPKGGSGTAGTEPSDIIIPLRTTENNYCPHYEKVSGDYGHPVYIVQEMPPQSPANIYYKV
UniProt Q53HC9: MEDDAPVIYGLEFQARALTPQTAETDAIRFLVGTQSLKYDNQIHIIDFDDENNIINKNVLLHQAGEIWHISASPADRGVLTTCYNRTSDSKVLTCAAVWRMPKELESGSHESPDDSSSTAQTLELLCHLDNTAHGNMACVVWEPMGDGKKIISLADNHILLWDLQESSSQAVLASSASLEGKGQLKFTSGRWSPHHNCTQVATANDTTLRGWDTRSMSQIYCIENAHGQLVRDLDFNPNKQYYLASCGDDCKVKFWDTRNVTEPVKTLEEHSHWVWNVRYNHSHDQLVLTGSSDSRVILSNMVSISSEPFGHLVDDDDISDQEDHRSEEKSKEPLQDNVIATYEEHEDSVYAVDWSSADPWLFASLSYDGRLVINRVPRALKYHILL
UniProt Q6IA86: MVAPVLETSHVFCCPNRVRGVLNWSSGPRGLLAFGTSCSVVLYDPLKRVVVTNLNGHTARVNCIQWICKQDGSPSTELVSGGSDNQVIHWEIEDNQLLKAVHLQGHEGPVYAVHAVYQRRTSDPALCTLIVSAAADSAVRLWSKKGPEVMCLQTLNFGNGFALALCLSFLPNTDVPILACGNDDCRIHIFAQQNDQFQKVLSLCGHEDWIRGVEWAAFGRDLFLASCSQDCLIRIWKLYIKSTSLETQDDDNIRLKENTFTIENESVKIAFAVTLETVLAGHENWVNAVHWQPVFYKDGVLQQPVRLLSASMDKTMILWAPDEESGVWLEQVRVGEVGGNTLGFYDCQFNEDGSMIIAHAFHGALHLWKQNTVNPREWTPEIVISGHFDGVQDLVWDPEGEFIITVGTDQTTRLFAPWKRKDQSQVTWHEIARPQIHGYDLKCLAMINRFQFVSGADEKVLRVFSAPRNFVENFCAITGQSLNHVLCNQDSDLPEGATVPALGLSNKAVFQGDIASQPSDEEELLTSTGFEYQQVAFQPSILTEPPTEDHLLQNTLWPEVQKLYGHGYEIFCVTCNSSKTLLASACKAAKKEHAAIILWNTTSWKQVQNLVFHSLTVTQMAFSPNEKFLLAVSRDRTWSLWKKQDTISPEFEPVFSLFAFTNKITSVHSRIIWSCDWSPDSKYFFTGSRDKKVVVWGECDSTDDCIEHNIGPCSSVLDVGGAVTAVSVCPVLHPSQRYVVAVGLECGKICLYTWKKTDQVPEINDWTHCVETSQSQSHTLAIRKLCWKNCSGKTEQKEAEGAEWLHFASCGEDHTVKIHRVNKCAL

Experiments:
Test in all cases: log2 fold change, soluble protein after heating vs DMSO (PISA); higher = thermal stabilisation; K562 cells, 10 uM, 30 min; active = over 0.2 and 3.5 SD of the protein, either way, in both replicates (recomputed)
saracatinib = compound: CN1CCN(CCOc2cc(OC3CCOCC3)c3c(Nc4c(Cl)ccc5c4OCO5)ncnc3c2)CC1 [saracatinib]
Procedure, shortened: (§1)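 Thermal stability values are relative to control samples and come from duplicates. They are expressed as log2 fold changes. For measurement, K562 cells (2×10^6 cells/mL) received 10 μM compound for 30 min, and aliquots were heated for 3 min over 48°C-58°C, pooled, and extracted at 4°C in PBS with 0.5% NP-40. Soluble protein, the supernatant after 21,000xg for 90 min, was quantified by TMTpro 16plex LC-MS/MS with equalised channel sums.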

sotrastaurin = compound: CN1CCN(c2nc(C3=C(c4c[nH]c5ccccc45)C(=O)NC3=O)c3ccccc3n2)CC1 [sotrastaurin]
Procedure, shortened: as §1

alvocidib = compound: CN1CC[C@H](c2c(O)cc(O)c3c(=O)cc(-c4ccccc4Cl)oc23)[C@H](O)C1 [alvocidib]
Procedure, shortened: as §1

Tubastatin A = compound: CN1CCc2c(c3ccccc3n2Cc2ccc(C(=O)NO)cc2)C1 [Tubastatin A]
Procedure, shortened: as §1

[1] = compound: CNC(=O)C1=CC=CC=C1NC2=NC(=NC=C2Cl)NC3=C(C=C(C=C3)N4CCOCC4)OC
Procedure, shortened: as §1

defactinib = compound: CNC(=O)c1ccc(Nc2ncc(C(F)(F)F)c(NCc3nccnc3N(C)S(C)(=O)=O)n2)cc1 [defactinib]
Procedure, shortened: as §1

rucaparib = compound: CNCc1ccc(-c2[nH]c3cc(F)cc4c3c2CCNC4=O)cc1 [rucaparib]
Procedure, shortened: as §1

[2] = compound: CNc1nc(-c2ccc3c(N)n[nH]c3c2)cc(N2C[C@@H](C(=O)NC3CCCCC3)CC[C@H]2C)n1
Procedure, shortened: as §1

encorafenib = compound: COC(=O)N[C@@H](C)CNc1nccc(-c2cn(C(C)C)nc2-c2cc(Cl)cc(NS(C)(=O)=O)c2F)n1 [encorafenib]
Procedure, shortened: as §1

[3] = compound: COC(=O)[C@H](CCSC)NC(=O)C1=C(C=C(C=C1)NC[C@H](CS)N)C2=CC=CC=C2
Procedure, shortened: as §1

[4] = compound: COC1=CC=C(C=C1)CN2C=CC3=C2C=C(C=C3)C(=O)NO
Procedure, shortened: as §1

filanesib = compound: CON(C)C(=O)N1N=C(c2cc(F)ccc2F)S[C@@]1(CCCN)c1ccccc1 [filanesib]
Procedure, shortened: as §1

zotarolimus = compound: CO[C@H]1C[C@@H]2CC[C@@H](C)[C@@](O)(O2)C(=O)C(=O)N2CCCC[C@H]2C(=O)O[C@H]([C@H](C)C[C@@H]2CC[C@H](n3cnnn3)[C@H](OC)C2)CC(=O)[C@H](C)/C=C(\C)[C@@H](O)[C@@H](OC)C(=O)[C@H](C)C[C@H](C)/C=C/C=C/C=C/1C [zotarolimus]
Procedure, shortened: as §1

idasanutlin = compound: COc1cc(C(=O)O)ccc1NC(=O)[C@@H]1N[C@@H](CC(C)(C)C)[C@](C#N)(c2ccc(Cl)cc2F)[C@H]1c1cccc(Cl)c1F [idasanutlin]
Procedure, shortened: as §1

alisertib = compound: COc1cc(Nc2ncc3c(n2)-c2ccc(Cl)cc2C(c2c(F)cccc2OC)=NC3)ccc1C(=O)O [alisertib]
Procedure, shortened: as §1

[5] = compound: COc1cc2nc(-c3cc(F)ccc3O)nc(N[C@@H]3CNC[C@H]3C(C)(C)O)c2cc1OC
Procedure, shortened: as §1

gefitinib = compound: COc1cc2ncnc(Nc3ccc(F)c(Cl)c3)c2cc1OCCCN1CCOCC1 [gefitinib]
Procedure, shortened: as §1

[6] = compound: COc1cccc2cc(-c3nc([C@H]4CC[C@H](C(=O)O)CC4)n4ncnc(N)c34)[nH]c12
Procedure, shortened: as §1

lapatinib = compound: CS(=O)(=O)CCNCc1ccc(-c2ccc3ncnc(Nc4ccc(OCc5cccc(F)c5)c(Cl)c4)c3c2)o1 [lapatinib]
Procedure, shortened: as §1

pictilisib = compound: CS(=O)(=O)N1CCN(Cc2cc3nc(-c4cccc5[nH]ncc45)nc(N4CCOCC4)c3s2)CC1 [pictilisib]
Procedure, shortened: as §1

Measured: log2 fold change

EIF3L (UniProt Q9Y262)
inactive: saracatinib -0.002 | sotrastaurin -0.017 | alvocidib -0.062 | Tubastatin A -0.011 | [1] -0.05 | defactinib -0.047 | rucaparib 0.008 | [2] 0 | encorafenib -0.007 | [3] 0.008 | [4] -0.013 | filanesib -0.084 | zotarolimus 0.027 | idasanutlin -0.055 | alisertib -0.068 | [5] 0.019 | gefitinib -0.018 | [6] 0 | lapatinib -0.025 | pictilisib 0.025

ENY2 (UniProt Q9NPA8)
inactive: saracatinib 0 | sotrastaurin -0.004 | alvocidib -0.037 | Tubastatin A -0.01 | [1] -0.017 | defactinib 0.012 | rucaparib -0.034 | [2] -0.025 | encorafenib -0.074 | [3] -0.019 | [4] -0.025 | filanesib -0.005 | zotarolimus 0.023 | idasanutlin -0.063 | alisertib -0.017 | [5] -0.036 | gefitinib 0.003 | [6] -0.001 | lapatinib 0.015 | pictilisib 0.009

EPB41 (UniProt P11171)
inactive: saracatinib -0.001 | sotrastaurin 0.006 | alvocidib -0.016 | Tubastatin A 0.027 | [1] 0.017 | defactinib -0.039 | rucaparib 0.051 | [2] 0.03 | encorafenib 0.028 | [3] -0.005 | [4] 0.022 | filanesib 0.016 | zotarolimus 0.03 | idasanutlin 0.011 | alisertib -0.043 | [5] 0 | gefitinib 0.031 | [6] -0.029 | lapatinib -0.001 | pictilisib 0.048

EMC1 (UniProt Q8N766)
inactive: saracatinib 0.045 | sotrastaurin 0.01 | alvocidib -0.015 | Tubastatin A 0 | [1] 0.013 | defactinib -0.028 | rucaparib -0.02 | [2] -0.015 | encorafenib 0.056 | [3] -0.018 | [4] -0.005 | filanesib -0.047 | zotarolimus 0.007 | idasanutlin -0.045 | alisertib -0.037 | [5] 0.014 | gefitinib 0.013 | [6] 0.022 | lapatinib 0.028 | pictilisib -0.038

EIF4H (UniProt Q15056)
inactive: saracatinib 0.002 | sotrastaurin -0.013 | alvocidib -0.072 | Tubastatin A -0.01 | [1] -0.009 | defactinib -0.057 | rucaparib -0.009 | [2] 0.011 | encorafenib -0.034 | [3] 0.044 | [4] 0.033 | filanesib -0.014 | zotarolimus -0.002 | idasanutlin 0.03 | alisertib -0.007 | [5] -0.022 | gefitinib 0.038 | [6] -0.041 | lapatinib -0.012 | pictilisib -0.014

EIF3K (UniProt Q9UBQ5)
inactive: saracatinib 0.058 | sotrastaurin -0.097 | alvocidib -0.041 | Tubastatin A -0.016 | [1] -0.039 | defactinib 0.037 | rucaparib -0.013 | [2] 0.007 | encorafenib 0.014 | [3] -0.052 | [4] -0.089 | filanesib -0.072 | zotarolimus 0.113 | idasanutlin -0.005 | alisertib -0.041 | [5] -0.035 | gefitinib 0.001 | [6] -0.011 | lapatinib 0.034 | pictilisib -0.043

5 consecutive entries from above:
EIF3L (UniProt Q9Y262)
inactive: saracatinib -0.002 | sotrastaurin -0.017 | alvocidib -0.062 | Tubastatin A -0.011 | [1] -0.05 | defactinib -0.047 | rucaparib 0.008 | [2] 0 | encorafenib -0.007 | [3] 0.008 | [4] -0.013 | filanesib -0.084 | zotarolimus 0.027 | idasanutlin -0.055 | alisertib -0.068 | [5] 0.019 | gefitinib -0.018 | [6] 0 | lapatinib -0.025 | pictilisib 0.025

ENY2 (UniProt Q9NPA8)
inactive: saracatinib 0 | sotrastaurin -0.004 | alvocidib -0.037 | Tubastatin A -0.01 | [1] -0.017 | defactinib 0.012 | rucaparib -0.034 | [2] -0.025 | encorafenib -0.074 | [3] -0.019 | [4] -0.025 | filanesib -0.005 | zotarolimus 0.023 | idasanutlin -0.063 | alisertib -0.017 | [5] -0.036 | gefitinib 0.003 | [6] -0.001 | lapatinib 0.015 | pictilisib 0.009

EPB41 (UniProt P11171)
inactive: saracatinib -0.001 | sotrastaurin 0.006 | alvocidib -0.016 | Tubastatin A 0.027 | [1] 0.017 | defactinib -0.039 | rucaparib 0.051 | [2] 0.03 | encorafenib 0.028 | [3] -0.005 | [4] 0.022 | filanesib 0.016 | zotarolimus 0.03 | idasanutlin 0.011 | alisertib -0.043 | [5] 0 | gefitinib 0.031 | [6] -0.029 | lapatinib -0.001 | pictilisib 0.048

EMC1 (UniProt Q8N766)
inactive: saracatinib 0.045 | sotrastaurin 0.01 | alvocidib -0.015 | Tubastatin A 0 | [1] 0.013 | defactinib -0.028 | rucaparib -0.02 | [2] -0.015 | encorafenib 0.056 | [3] -0.018 | [4] -0.005 | filanesib -0.047 | zotarolimus 0.007 | idasanutlin -0.045 | alisertib -0.037 | [5] 0.014 | gefitinib 0.013 | [6] 0.022 | lapatinib 0.028 | pictilisib -0.038

EIF4H (UniProt Q15056)
inactive: saracatinib 0.002 | sotrastaurin -0.013 | alvocidib -0.072 | Tubastatin A -0.01 | [1] -0.009 | defactinib -0.057 | rucaparib -0.009 | [2] 0.011 | encorafenib -0.034 | [3] 0.044 | [4] 0.033 | filanesib -0.014 | zotarolimus -0.002 | idasanutlin 0.03 | alisertib -0.007 | [5] -0.022 | gefitinib 0.038 | [6] -0.041 | lapatinib -0.012 | pictilisib -0.014

Remaining list, next part

ELP5 isoform 4 (UniProt Q8TE02)
inactive: saracatinib 0.049 | sotrastaurin 0.024 | alvocidib -0.002 | Tubastatin A -0.007 | [1] -0.005 | defactinib 0.011 | rucaparib 0.115 | [2] -0.037 | encorafenib -0.055 | [3] -0.004 | [4] -0.051 | filanesib 0.012 | zotarolimus 0.007 | idasanutlin 0.017 | alisertib -0.07 | [5] 0.009 | gefitinib 0.023 | [6] 0.04 | lapatinib -0.049 | pictilisib 0.005

EIF1AD (UniProt Q8N9N8)
inactive: saracatinib 0.121 | sotrastaurin 0.007 | alvocidib 0.003 | Tubastatin A -0.011 | [1] -0.011 | defactinib -0.036 | rucaparib -0.075 | [2] 0.027 | encorafenib -0.02 | [3] -0.002 | [4] -0.043 | filanesib -0.05 | zotarolimus -0.005 | idasanutlin 0.03 | alisertib -0.028 | [5] -0.051 | gefitinib 0.016 | [6] 0.074 | lapatinib 0.011 | pictilisib 0.029

EML3 (UniProt Q32P44)
inactive: saracatinib 0.144 | sotrastaurin -0.037 | alvocidib 0.147 | Tubastatin A 0.051 | [1] -0.045 | rucaparib 0.276 | [2] -0.124 | encorafenib 0.222 | [4] -0.114 | filanesib 0.059 | zotarolimus -0.031 | idasanutlin 0.102 | alisertib -0.18 | [5] 0.059 | gefitinib -0.093 | [6] -0.161 | lapatinib 0.137 | pictilisib -0.107

EIF4ENIF1 isoform 3 (UniProt Q9NRA8)
inactive: saracatinib -0.034 | sotrastaurin 0.004 | alvocidib -0.065 | Tubastatin A 0.069 | [1] 0.01 | defactinib 0.036 | rucaparib -0.017 | [2] -0.013 | encorafenib -0.035 | [3] 0.001 | [4] 0.045 | filanesib 0.052 | zotarolimus -0.046 | idasanutlin 0.042 | alisertib -0.085 | [5] 0.04 | [6] -0.044 | lapatinib 0.008 | pictilisib 0.109

ENO1 (UniProt P06733)
inactive: saracatinib 0.021 | sotrastaurin 0.051 | alvocidib -0.019 | Tubastatin A -0.008 | [1] -0.031 | defactinib 0.003 | rucaparib -0.051 | [2] -0.013 | encorafenib -0.033 | [3] 0.029 | [4] -0.027 | filanesib -0.044 | zotarolimus -0.028 | idasanutlin -0.014 | alisertib -0.006 | [5] 0.056 | gefitinib 0.017 | [6] 0.055 | lapatinib -0.03 | pictilisib 0.013

EHMT1 (UniProt Q9H9B1)
inactive: saracatinib -0.027 | sotrastaurin -0.116 | alvocidib -0.017 | Tubastatin A 0.049 | [1] -0.082 | defactinib -0.009 | [2] 0.049 | [3] 0.003 | [4] 0.019 | filanesib 0.041 | zotarolimus 0.024 | idasanutlin 0.046 | alisertib 0.193 | [5] -0.106 | [6] -0.082 | lapatinib 0.006 | pictilisib 0.226

EFNB1 (UniProt P98172)
inactive: saracatinib -0.156 | sotrastaurin -0.242 | alvocidib -0.158 | Tubastatin A -0.049 | [1] -0.004 | defactinib -0.085 | rucaparib -0.107 | [2] 0 | encorafenib -0.029 | [3] 0.009 | [4] -0.008 | filanesib -0.229 | zotarolimus -0.124 | idasanutlin 0.058 | alisertib -0.097 | [5] 0.015 | gefitinib 0.19 | [6] 0.003 | lapatinib -0.049 | pictilisib 0.099

EIPR1 (UniProt Q53HC9)
inactive: saracatinib 0.045 | sotrastaurin -0.015 | alvocidib -0.036 | Tubastatin A -0.025 | [1] 0.022 | defactinib -0.044 | rucaparib -0.052 | [2] -0.031 | encorafenib -0.024 | [3] 0.014 | [4] 0.005 | filanesib -0.044 | zotarolimus 0.015 | idasanutlin -0.021 | alisertib -0.004 | [5] 0.032 | gefitinib 0.096 | [6] 0.039 | lapatinib 0.007 | pictilisib 0.039

ELP2 isoform 6 (UniProt Q6IA86)
inactive: saracatinib 0.038 | sotrastaurin -0.001 | alvocidib -0.004 | Tubastatin A -0.021 | [1] 0.018 | defactinib -0.005 | rucaparib 0.019 | [2] -0.032 | encorafenib 0.02 | [3] 0.014 | [4] -0.067 | filanesib -0.034 | zotarolimus 0.013 | idasanutlin -0.013 | alisertib -0.005 | [5] -0.004 | gefitinib -0.01 | [6] 0.038 | lapatinib -0.022 | pictilisib 0.013

ELAVL1 isoform 2 (UniProt Q15717)
inactive: saracatinib -0.048 | sotrastaurin -0.001 | alvocidib 0.257 | Tubastatin A 0.024 | [1] -0.018 | defactinib 0.306 | rucaparib 0.546 | [2] -0.038 | encorafenib 0.22 | [3] 0.016 | [4] 0.006 | filanesib 0.296 | zotarolimus -0.026 | idasanutlin 0.245 | alisertib -0.153 | [5] -0.068 | gefitinib -0.018 | [6] -0.133 | lapatinib 0.012 | pictilisib -0.032
